Experimental data taken from the supplement of paper PMC6078165.
Values are relative to the signal before dosing, not to a vehicle control; the signal also falls without drug.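 Fibroblast labels denote human fibroblasts, mainly primary ones from uterus (C12385, HUF), lung (H6013), bone (Hs27A), adrenal (HADF) and skin (WS1), plus mammary HMF and breast cancer-associated Hs343T. Cancer cells are basal-like or mesenchymal-like triple-negative breast cancer lines. A hit is a response shift exceeding 3x replicate standard deviation. The tissue of the other fibroblasts is not given here.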

Test system: MDAMB231
Test: relative JC-1 red fluorescence (viability) vs pre-drug, coculture with fibroblast (fraction); higher = more viable cancer cells
Experimental: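 JC-1 labelled TNBC cells cocultured 1:1 (1,500 cells each) with CellTrace Violet stained primary or stromal fibroblasts in 384-well plates in FluoroBrite medium, treated with one of 42 anticancer drugs at 0.1, 1, 10 or 100 uM. JC-1 red fluorescence (mitochondrial integrity in cancer cells only) was read by plate reader every 8 h for 72 h. Values are normalised to each well's pre-drug value. The stock of one drug was tenfold lower, so its dose labels may be too high.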

CC/C(=C(\c1ccccc1)c1ccc(OCCN(C)C)cc1)c1ccccc1 [Tamoxifen]
Details | relative JC-1 red fluorescence
1 µM, 40 h, coculture fibroblast: HHSteC | 0.8105
1 µM, 40 h, coculture fibroblast: HMF | 0.701
1 µM, 40 h, coculture fibroblast: HPFa | 0.8155
1 µM, 40 h, coculture fibroblast: HUF | 0.641
1 µM, 40 h, coculture fibroblast: Hs5 | 0.729
1 µM, 40 h, coculture fibroblast: Hs27A | 0.721
1 µM, 40 h, coculture fibroblast: Hs343T | 0.685
1 µM, 40 h, coculture fibroblast: WS1 | 0.557
1 µM, 48 h, coculture fibroblast: C12385 | 0.5934
1 µM, 48 h, coculture fibroblast: H6013 | 0.696
1 µM, 48 h, coculture fibroblast: H6019 | 0.617
1 µM, 48 h, coculture fibroblast: H6076 | 0.685
1 µM, 48 h, coculture fibroblast: H6231 | 0.687
1 µM, 48 h, coculture fibroblast: HADF | 0.6759
1 µM, 48 h, coculture fibroblast: HCFa | 0.709
1 µM, 48 h, coculture fibroblast: HCPF | 0.668
1 µM, 48 h, coculture fibroblast: HHSteC | 0.7807
1 µM, 48 h, coculture fibroblast: HMF | 0.662
1 µM, 48 h, coculture fibroblast: HPFa | 0.7816
1 µM, 48 h, coculture fibroblast: HUF | 0.612
1 µM, 48 h, coculture fibroblast: Hs5 | 0.674
1 µM, 48 h, coculture fibroblast: Hs27A | 0.654
1 µM, 48 h, coculture fibroblast: Hs343T | 0.639
1 µM, 48 h, coculture fibroblast: WS1 | 0.516
1 µM, 56 h, coculture fibroblast: C12385 | 0.5535
1 µM, 56 h, coculture fibroblast: H6013 | 0.689
1 µM, 56 h, coculture fibroblast: H6019 | 0.564
1 µM, 56 h, coculture fibroblast: H6076 | 0.665
1 µM, 56 h, coculture fibroblast: H6231 | 0.652
1 µM, 56 h, coculture fibroblast: HADF | 0.652
1 µM, 56 h, coculture fibroblast: HCFa | 0.676
1 µM, 56 h, coculture fibroblast: HCPF | 0.643
1 µM, 56 h, coculture fibroblast: HHSteC | 0.73849
1 µM, 56 h, coculture fibroblast: HMF | 0.638
1 µM, 56 h, coculture fibroblast: HPFa | 0.722
1 µM, 56 h, coculture fibroblast: HUF | 0.559
1 µM, 56 h, coculture fibroblast: Hs5 | 0.637
1 µM, 56 h, coculture fibroblast: Hs27A | 0.649
1 µM, 56 h, coculture fibroblast: Hs343T | 0.59
1 µM, 56 h, coculture fibroblast: WS1 | 0.469
1 µM, 64 h, coculture fibroblast: C12385 | 0.5557
1 µM, 64 h, coculture fibroblast: H6013 | 0.657
1 µM, 64 h, coculture fibroblast: H6019 | 0.549
1 µM, 64 h, coculture fibroblast: H6076 | 0.647
1 µM, 64 h, coculture fibroblast: H6231 | 0.636
1 µM, 64 h, coculture fibroblast: HADF | 0.6368
1 µM, 64 h, coculture fibroblast: HCFa | 0.65
1 µM, 64 h, coculture fibroblast: HCPF | 0.613
1 µM, 64 h, coculture fibroblast: HHSteC | 0.71114
1 µM, 64 h, coculture fibroblast: HMF | 0.614
1 µM, 64 h, coculture fibroblast: HPFa | 0.699
1 µM, 64 h, coculture fibroblast: HUF | 0.543
1 µM, 64 h, coculture fibroblast: Hs5 | 0.606
1 µM, 64 h, coculture fibroblast: Hs27A | 0.63
1 µM, 64 h, coculture fibroblast: Hs343T | 0.568
1 µM, 64 h, coculture fibroblast: WS1 | 0.468
1 µM, 72 h, coculture fibroblast: C12385 | 0.538
1 µM, 72 h, coculture fibroblast: H6013 | 0.61
1 µM, 72 h, coculture fibroblast: H6019 | 0.506
1 µM, 72 h, coculture fibroblast: H6076 | 0.637
1 µM, 72 h, coculture fibroblast: H6231 | 0.611
1 µM, 72 h, coculture fibroblast: HADF | 0.593
1 µM, 72 h, coculture fibroblast: HCFa | 0.599
1 µM, 72 h, coculture fibroblast: HCPF | 0.594
1 µM, 72 h, coculture fibroblast: HHSteC | 0.6712
1 µM, 72 h, coculture fibroblast: HMF | 0.594
1 µM, 72 h, coculture fibroblast: HPFa | 0.64
1 µM, 72 h, coculture fibroblast: HUF | 0.521
1 µM, 72 h, coculture fibroblast: Hs5 | 0.577
1 µM, 72 h, coculture fibroblast: Hs27A | 0.573
1 µM, 72 h, coculture fibroblast: Hs343T | 0.538
1 µM, 72 h, coculture fibroblast: WS1 | 0.444
10 µM, 8 h, coculture fibroblast: C12385 | 0.737
10 µM, 8 h, coculture fibroblast: H6013 | 0.952
10 µM, 8 h, coculture fibroblast: H6019 | 0.755
10 µM, 8 h, coculture fibroblast: H6076 | 0.885
10 µM, 8 h, coculture fibroblast: H6231 | 0.839
10 µM, 8 h, coculture fibroblast: HADF | 0.919
10 µM, 8 h, coculture fibroblast: HCFa | 0.945
10 µM, 8 h, coculture fibroblast: HCPF | 0.766
10 µM, 8 h, coculture fibroblast: HHSteC | 0.9546
10 µM, 8 h, coculture fibroblast: HMF | 0.754
10 µM, 8 h, coculture fibroblast: HPFa | 0.976
10 µM, 8 h, coculture fibroblast: HUF | 0.891
10 µM, 8 h, coculture fibroblast: Hs5 | 0.859
10 µM, 8 h, coculture fibroblast: Hs27A | 0.9458
10 µM, 8 h, coculture fibroblast: Hs343T | 0.899
10 µM, 8 h, coculture fibroblast: WS1 | 0.765
10 µM, 16 h, coculture fibroblast: C12385 | 0.789
10 µM, 16 h, coculture fibroblast: H6013 | 0.935
10 µM, 16 h, coculture fibroblast: H6019 | 0.746
10 µM, 16 h, coculture fibroblast: H6076 | 0.847
10 µM, 16 h, coculture fibroblast: H6231 | 0.812
10 µM, 16 h, coculture fibroblast: HADF | 0.9188
10 µM, 16 h, coculture fibroblast: HCFa | 0.937
10 µM, 16 h, coculture fibroblast: HCPF | 0.804
10 µM, 16 h, coculture fibroblast: HHSteC | 0.968
10 µM, 16 h, coculture fibroblast: HMF | 0.835
10 µM, 16 h, coculture fibroblast: HPFa | 0.9845
10 µM, 16 h, coculture fibroblast: HUF | 0.861
10 µM, 16 h, coculture fibroblast: Hs5 | 0.797
10 µM, 16 h, coculture fibroblast: Hs27A | 0.946
10 µM, 16 h, coculture fibroblast: Hs343T | 0.739
10 µM, 16 h, coculture fibroblast: WS1 | 0.776
10 µM, 24 h, coculture fibroblast: C12385 | 0.638
10 µM, 24 h, coculture fibroblast: H6013 | 0.93
10 µM, 24 h, coculture fibroblast: H6019 | 0.666
10 µM, 24 h, coculture fibroblast: H6076 | 0.815
